Earlier results, collected in US20110071027A1, “HIGH […] AQUEOUS […] CONCENTRATES AND METHODS” (priority 2009, published 2011).

Conditions: at 25° C.; acid form

## O=C(O)CNCP(=O)(O)O [glyphosate acid, N-(phosphonomethyl)glycine]
  solubility in water: about 12 g/L
